Reference: the supplement of paper PMC10849652
The other results are listed elsewhere or left out. Residues, ends and D or L forms follow the SMILES beside them. *: point of attachment. Cbz = O=C(OCc1ccccc1)*

The chains behind the UniProt entries cited, without tags or fusion partners. Where a name states a change or a piece, a line headed by the entry shows the natural chain unless it says otherwise.
UniProt Q92544: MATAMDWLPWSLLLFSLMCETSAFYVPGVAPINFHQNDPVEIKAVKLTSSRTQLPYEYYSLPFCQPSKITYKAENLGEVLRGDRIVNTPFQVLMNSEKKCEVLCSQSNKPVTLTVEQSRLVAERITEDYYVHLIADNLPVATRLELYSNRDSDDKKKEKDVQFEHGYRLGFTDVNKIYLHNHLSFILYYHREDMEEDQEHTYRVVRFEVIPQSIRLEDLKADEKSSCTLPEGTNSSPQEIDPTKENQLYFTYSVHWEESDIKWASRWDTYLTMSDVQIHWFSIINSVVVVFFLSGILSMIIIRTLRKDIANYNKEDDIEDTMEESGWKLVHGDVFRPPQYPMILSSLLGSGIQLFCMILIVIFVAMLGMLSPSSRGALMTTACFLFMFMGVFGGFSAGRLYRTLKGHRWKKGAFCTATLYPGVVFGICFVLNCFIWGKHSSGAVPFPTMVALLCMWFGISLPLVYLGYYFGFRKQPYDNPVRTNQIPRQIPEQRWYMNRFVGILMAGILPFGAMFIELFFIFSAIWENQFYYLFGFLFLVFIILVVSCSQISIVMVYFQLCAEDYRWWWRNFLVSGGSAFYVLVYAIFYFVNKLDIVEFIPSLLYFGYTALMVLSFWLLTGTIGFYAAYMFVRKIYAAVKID
UniProt Q96HV5: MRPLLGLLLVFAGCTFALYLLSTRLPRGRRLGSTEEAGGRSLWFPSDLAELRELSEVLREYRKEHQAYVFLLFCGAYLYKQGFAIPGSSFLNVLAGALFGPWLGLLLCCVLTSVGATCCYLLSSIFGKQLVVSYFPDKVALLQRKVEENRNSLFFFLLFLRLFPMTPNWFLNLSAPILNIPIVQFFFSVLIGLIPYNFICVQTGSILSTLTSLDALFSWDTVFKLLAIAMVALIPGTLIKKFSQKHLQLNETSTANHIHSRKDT
UniProt Q9NX61: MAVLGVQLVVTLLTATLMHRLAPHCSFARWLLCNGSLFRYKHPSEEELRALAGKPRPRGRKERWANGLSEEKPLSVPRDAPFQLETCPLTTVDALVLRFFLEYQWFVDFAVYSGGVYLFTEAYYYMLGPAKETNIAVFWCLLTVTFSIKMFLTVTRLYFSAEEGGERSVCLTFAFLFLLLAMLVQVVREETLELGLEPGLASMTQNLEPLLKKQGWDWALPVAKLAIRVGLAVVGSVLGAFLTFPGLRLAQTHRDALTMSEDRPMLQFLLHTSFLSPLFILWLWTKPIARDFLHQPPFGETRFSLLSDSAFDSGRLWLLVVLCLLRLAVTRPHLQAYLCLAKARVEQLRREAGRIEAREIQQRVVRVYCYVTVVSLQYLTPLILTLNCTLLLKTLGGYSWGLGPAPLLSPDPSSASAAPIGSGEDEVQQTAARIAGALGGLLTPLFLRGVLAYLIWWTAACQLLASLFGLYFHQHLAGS
UniProt P62328: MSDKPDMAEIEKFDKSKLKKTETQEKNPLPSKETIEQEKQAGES

Tests used:
Experiment in all cases: log2 fold change, soluble protein after heating vs DMSO (PISA); higher = thermal stabilisation; K562 cells, 10 uM, 30 min; active = over 0.2 and 3.5 SD of the protein, either way, in both replicates (recomputed)
IRAK-1-4 Inhibitor I = compound: C1COCCN1CCN2C3=CC=CC=C3N=C2NC(=O)C4=CC(=CC=C4)[N+](=O)[O-] [IRAK-1-4 Inhibitor I]
In short: (§1)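 Soluble protein was quantified by TMTpro 16plex LC-MS/MS after channel sums were equalised. It was obtained as the supernatant after 21,000xg for 90 min from pooled aliquots of K562 cells (2×10^6 cells/mL, 10 μM compound, 30 min) heated for 3 min across 48°C-58°C and extracted in PBS with 0.5% NP-40 at 4°C. Thermal stability values are relative to control samples and come from duplicates. They are given as log2 fold changes.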

ibrutinib = compound: C=CC(=O)N1CCC[C@@H](n2nc(-c3ccc(Oc4ccccc4)cc3)c3c(N)ncnc32)C1 [ibrutinib]
In short: as §1

[1] = compound: CC(=O)c1cnc2ccc(-c3cc(Cl)c(O)c(Cl)c3)nc2c1N[C@H]1CC[C@H](CN(C)C)CC1
In short: as §1

ralimetinib = compound: CC(C)(C)Cn1c(N)nc2ccc(-c3[nH]c(C(C)(C)C)nc3-c3ccc(F)cc3)nc21 [ralimetinib]
In short: as §1

[2] = compound: CC(C)(O)CC(=O)NCCn1ccc2ncnc(Nc3ccc(Oc4cccc(C(F)(F)F)c4)c(Cl)c3)c21
In short: as §1

[3] = compound: CC(C)C1=C2N=C(C=C(N2N=C1)NCC3=CC=CC=C3)NCCCCCCN
In short: as §1

[4] = compound: CC(C)C[C@@H](C=O)NC(=O)[C@H](CC(C)C)NC(=O)[C@H](CC(C)C)NC(=O)OCc1ccccc1
In short: as §1

pinometostat = compound: CC(C)N(C[C@H]1O[C@@H](n2cnc3c(N)ncnc32)[C@H](O)[C@@H]1O)[C@H]1C[C@@H](CCc2nc3cc(C(C)(C)C)ccc3[nH]2)C1 [pinometostat]
In short: as §1

[5] = compound: CC1=C(C2=C(C=C1)C(=O)C3=CC=CC=C3N2CCCN)C
In short: as §1

[6] = compound: CC1=C(C=C(C=C1)NC(=O)C2=CC(=CC=C2)C(C)(C)C#N)NC3=CC4=C(C=C3)N=CN(C4=O)C
In short: as §1

[7] = compound: CC1=C(C=C(C=C1)NC(=O)C2=CC(=CC=C2)N(C)C)NC(=O)C3=CC=C(C=C3)O
In short: as §1

[8] = compound: CC1=CC=C(C=C1)SC2=C3C=C(SC3=CN=C2)C(=O)N
In short: as §1

[9] = compound: CC1=NC(=CC=C1)C2=C(N=C(N2)C(C)(C)C)C3=CC4=NC=CN=C4C=C3
In short: as §1

Nexturastat A = compound: CCCCN(Cc1ccc(C(=O)NO)cc1)C(=O)Nc1ccccc1 [Nexturastat A]
In short: as §1

vemurafenib = compound: CCCS(=O)(=O)Nc1ccc(F)c(C(=O)c2c[nH]c3ncc(-c4ccc(Cl)cc4)cc23)c1F [vemurafenib]
In short: as §1

[10] = compound: CCCS(=O)(=O)Nc1ccc(F)c(C(=O)c2c[nH]c3ncc(Cl)cc23)c1F
In short: as §1

[11] = compound: CCCc1cc(C)[nH]c(=O)c1CNC(=O)c1cc(-c2ccnc(N3CCN(C)CC3)c2)cc2c1cnn2C(C)C
In short: as §1

givinostat = compound: CCN(CC)Cc1ccc2cc(COC(=O)Nc3ccc(C(=O)NO)cc3)ccc2c1 [givinostat]
In short: as §1

barasertib = compound: CCN(CCCOc1ccc2c(Nc3cc(CC(=O)Nc4cccc(F)c4)[nH]n3)ncnc2c1)CCOP(=O)(O)O [barasertib]
In short: as §1

[12] = compound: CC1=C(C(CC(=O)N1)C2=CC=C(C=C2)C(F)(F)F)C(=O)NC3=C(C=C4C(=C3)C=NN4)F
In short: as §1

Measured: log2 fold change

TM9SF4 (UniProt Q92544)
inactive: IRAK-1-4 Inhibitor I -0.006 | ibrutinib 0.008 | [1] -0.016 | ralimetinib 0.031 | [2] -0.006 | [3] -0.033 | [4] 0.029 | pinometostat 0.016 | [5] 0.077 | [6] 0.084 | [7] -0.022 | [8] 0.014 | [9] -0.012 | Nexturastat A -0.029 | vemurafenib 0.031 | [10] 0.073 | [11] 0.034 | givinostat 0.054 | barasertib 0.004

TMEM41A (UniProt Q96HV5)
inactive: IRAK-1-4 Inhibitor I -0.022 | ibrutinib -0.007 | [1] -0.04 | ralimetinib 0.033 | [2] 0.022 | [3] 0.043 | [4] -0.079 | pinometostat -0.06 | [5] 0.151 | [6] 0.039 | [7] 0.093 | [8] 0.002 | [9] 0.014 | Nexturastat A -0.138 | vemurafenib -0.163 | [10] -0.101 | [11] -0.021 | givinostat -0.043 | barasertib 0.001

TMEM161A (UniProt Q9NX61)
active: [3] -0.395
inactive: IRAK-1-4 Inhibitor I 0.03 | ibrutinib -0.015 | [1] 0.045 | ralimetinib -0.059 | [2] -0.17 | [4] -0.045 | pinometostat 0.121 | [5] 0.071 | [6] -0.045 | [7] 0.12 | [8] 0.014 | [9] -0.012 | Nexturastat A -0.059 | vemurafenib 0.045 | [10] 0.225 | [11] -0.048 | givinostat 0.024 | barasertib -0.017

TMSB4X (UniProt P62328)
inactive: IRAK-1-4 Inhibitor I 0.322 | ibrutinib 0.46 | [1] -0.032 | ralimetinib 0.06 | [2] 0.162 | [4] 0.77 | pinometostat 0.03 | [12] 0.45 | [7] 0.073 | [8] -0.231 | [9] -0.846 | Nexturastat A 0.585 | vemurafenib 0.013 | [10] -0.396 | [11] -1.2 | barasertib 0.157
